The experiment has as its target T1, HA-FAM111B (wild-type) (human) (UniProt Q6SJ93).
T1 sequence: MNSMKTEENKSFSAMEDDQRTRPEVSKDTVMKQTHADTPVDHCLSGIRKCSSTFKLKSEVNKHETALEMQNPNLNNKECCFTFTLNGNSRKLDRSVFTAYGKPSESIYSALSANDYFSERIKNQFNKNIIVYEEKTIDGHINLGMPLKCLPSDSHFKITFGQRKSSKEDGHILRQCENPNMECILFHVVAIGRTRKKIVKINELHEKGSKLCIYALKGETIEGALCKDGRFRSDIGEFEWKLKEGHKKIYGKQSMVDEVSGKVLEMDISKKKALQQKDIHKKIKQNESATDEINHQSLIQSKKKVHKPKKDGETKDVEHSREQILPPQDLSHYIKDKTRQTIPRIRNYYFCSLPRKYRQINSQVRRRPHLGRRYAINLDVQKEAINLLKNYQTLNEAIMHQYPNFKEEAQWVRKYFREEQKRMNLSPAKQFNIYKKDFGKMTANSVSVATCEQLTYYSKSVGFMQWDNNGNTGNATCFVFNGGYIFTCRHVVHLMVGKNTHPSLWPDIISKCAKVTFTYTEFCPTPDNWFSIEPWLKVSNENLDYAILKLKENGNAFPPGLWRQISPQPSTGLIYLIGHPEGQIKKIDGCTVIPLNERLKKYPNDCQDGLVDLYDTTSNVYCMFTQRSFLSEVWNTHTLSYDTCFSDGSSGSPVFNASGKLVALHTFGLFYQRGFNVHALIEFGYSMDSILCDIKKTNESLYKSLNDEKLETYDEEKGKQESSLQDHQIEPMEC
The experiment is described as follows: co-IP; HA immunoprecipitation with anti-HA magnetic beads (μMACS HA Isolation Kit) from 2 mg lysate of transfected HeLa cells; lysis buffer with 10 mM N-ethylmaleimide, 10 μM MG-132, protease inhibitors; Western blot of the eluate. For orientation: Immunoblotting shows a protein as a band on a membrane.

The chains behind the UniProt entries cited, without tags or fusion partners.
UniProt P25786: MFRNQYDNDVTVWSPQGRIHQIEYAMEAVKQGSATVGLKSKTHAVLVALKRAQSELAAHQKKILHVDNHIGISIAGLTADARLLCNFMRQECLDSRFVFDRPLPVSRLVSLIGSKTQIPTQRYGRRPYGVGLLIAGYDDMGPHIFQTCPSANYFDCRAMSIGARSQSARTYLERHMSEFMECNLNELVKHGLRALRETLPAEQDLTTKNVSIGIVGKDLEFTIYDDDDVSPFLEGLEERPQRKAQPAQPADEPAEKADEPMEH

These are yes or no findings as the source states them, for the method shown. Binding seen in cells or lysates may run through a third protein. Some results given as binding are weak or reduced against the parent protein; the word gives no strength. Tags and fused reporters may be left off the sequences shown.

For the substance “proteasome subunit PSMA1 (from UniProt P25786 1-263)”, the binding result is listed as “binds”.
